PubChem BioAssay AID504764 – Drosophila RNAi Screening Center, 2011
The screen tested about 22,000 reagents; this is an unselected part of those with a known target gene and a result. Over the whole deposit, 403 (1.9%) are marked active. 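Unnormalised raw counts per well; ratio z-scores behind the hit calls and whether each hit raises or lowers signal are not deposited.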 A plus sign joins genes that one reagent is predicted to hit. Not given: the amount of reagent.

- Purpose: 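Knock-downs that raise or lower a Notch target reporter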 (primary screen)
- System: Drosophila Kc167 cells
- Knock-down reagent: long dsRNA against Drosophila genes
- Timing: about 5 days (4 days dsRNA, then 24 h after transfection)
- Challenge: transfection of constitutively active membrane-tethered Notch lacking the extracellular domain, read 24 h later
- Read-out: 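Light from a Notch-responsive E(spl)m3 luciferase reporter under active Notch, with control-promoter and no-Notch reporter wells to normalise; raw counts from paired wells a and b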
- Reading the numbers: induced reporter light, run 1, well a and induced reporter light, run 1, well b: higher = more light from the Notch target reporter with active Notch; control promoter light, run 1, well a and control promoter light, run 1, well b: higher = more light from the viral control promoter (cell number, transfection, viability); uninduced reporter light, run 1, well a: higher = more light from the Notch target reporter without active Notch
- Call rule: 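Wells with low control signal or poorly matching duplicates excluded; duplicates averaged; per source plate, z beyond ±2 for induced/control log2 ratio or beyond ±1.8 for induced/uninduced marks a hit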
- Calls: active = modifier hit (raised or lowered Notch signal); inactive = not a hit

gene | DRSC id | induced reporter light, run 1, well a | induced reporter light, run 1, well b | control promoter light, run 1, well a | control promoter light, run 1, well b | uninduced reporter light, run 1, well a | activity call
RpS15 | DRSC07151 | 20255 | 15755 | 20560 | 17610 | 1580 | inactive
CG3557 | DRSC00614 | 1.65e5 | 1.91e5 | 1.94e5 | 2.13e5 | 11745 | inactive
ppk5 | DRSC11492 | 2.56e5 | 2.24e5 | 2.87e5 | 2.68e5 | 20995 | inactive
SdhCL | DRSC16078 | 67755 | 45940 | 54615 | 44280 | 2315 | inactive
Efr | DRSC18322 | 1.23e5 | 1.33e5 | 2.25e5 | 2.40e5 | 9805 | inactive
CG14695 | DRSC14918 | 73745 | 1.02e5 | 92535 | 80655 | 6495 | inactive
dUTPase | DRSC01998 | 2.28e5 | 2.09e5 | 1.82e5 | 1.69e5 | 14725 | inactive
CG15643 | DRSC19679 | 90580 | 71385 | 95080 | 67500 | 10290 | inactive
veli | DRSC16276 | 1.99e5 | 1.45e5 | 1.73e5 | 1.40e5 | 12640 | inactive
CG30431 | DRSC04902 | 1.98e5 | 2.03e5 | 1.68e5 | 1.73e5 | 13610 | inactive
CG30431 | DRSC04904 | 1.50e5 | 1.48e5 | 1.57e5 | 1.45e5 | 9700 | inactive
CG15537 | DRSC15073 | 1.58e5 | 1.37e5 | 2.28e5 | 1.99e5 | 10788 | inactive
CG31055 | DRSC13832 | 1.59e5 | 1.50e5 | 1.93e5 | 1.52e5 | 14740 | inactive
ppk19 | DRSC15321 | 16215 | 11525 | 17815 | 14438 | 1050 | inactive
pre-mod(mdg4)-AD + mod(mdg4) + pre-mod(mdg4)-X + 3 more | DRSC16328 | 1.69e5 | 1.75e5 | 2.11e5 | 1.70e5 | 15275 | inactive
RpS27A | DRSC03421 | 84465 | 95685 | 46830 | 59700 | 11785 | inactive
Obp50d | DRSC05483 | 1.53e5 | 1.77e5 | 1.97e5 | 2.30e5 | 16960 | inactive
CG12998 | DRSC19518 | 1.14e5 | 94785 | 1.07e5 | 1.05e5 | 14160 | inactive
Btk | DRSC02008 | 1.68e5 | 1.75e5 | 1.21e5 | 1.58e5 | 22460 | inactive
Btk | DRSC02666 | 75140 | 74020 | 58820 | 67625 | 5275 | inactive
SP2353 | DRSC07545 | 1.80e5 | 1.41e5 | 1.59e5 | 1.60e5 | 12175 | inactive
lncRNA:CR32553 | DRSC19229 | 1.08e5 | 88420 | 88795 | 84860 | 8460 | inactive
CG13376 | DRSC17901 | 1.16e5 | 1.51e5 | 2.53e5 | 2.52e5 | 9875 | inactive
FucTB | DRSC02745 | 1.09e5 | 1.65e5 | 78725 | 86380 | 19585 | inactive
INPP5E | DRSC09723 | 1.66e5 | 1.18e5 | 2.20e5 | 2.24e5 | 10280 | inactive
pnut | DRSC07666 | 1.77e5 | 1.31e5 | 1.67e5 | 1.63e5 | 12300 | inactive
CG9674 | DRSC11088 | 1.32e5 | 1.42e5 | 87415 | 85055 | 10095 | inactive
CG9674 | DRSC11089 | 1.89e5 | 1.47e5 | 2.24e5 | 1.28e5 | 7480 | inactive
escl | DRSC02828 | 3.05e5 | 2.88e5 | 2.75e5 | 2.61e5 | 20545 | inactive
Sf3b3 | DRSC08370 | 47555 | 49200 | 78155 | 83130 | 3055 | inactive
Act88F | DRSC14105 | 2.39e5 | 2.77e5 | 2.74e5 | 3.18e5 | 20478 | inactive
CG30427 | DRSC04014 | 1.21e5 | 1.46e5 | 2.04e5 | 1.88e5 | 7860 | inactive
CG30427 | DRSC04311 | 2.36e5 | 1.78e5 | 1.44e5 | 1.77e5 | 12840 | inactive
CG30427 | DRSC04323 | 1.83e5 | 2.04e5 | 1.85e5 | 1.91e5 | 16160 | inactive

Entries listed so far whose target name starts with R or r (2):
gene | DRSC id | induced reporter light, run 1, well a | induced reporter light, run 1, well b | control promoter light, run 1, well a | control promoter light, run 1, well b | uninduced reporter light, run 1, well a | activity call
RpS15 | DRSC07151 | 20255 | 15755 | 20560 | 17610 | 1580 | inactive
RpS27A | DRSC03421 | 84465 | 95685 | 46830 | 59700 | 11785 | inactive
